This passage reports binding results from US20170335310A1.

Sequences of proteins named here, by UniProt entry; tags and fusion partners are left off. A change or cut given only in a name is not applied to a line headed by its entry. Residues count along the entry.
UniProt P01024: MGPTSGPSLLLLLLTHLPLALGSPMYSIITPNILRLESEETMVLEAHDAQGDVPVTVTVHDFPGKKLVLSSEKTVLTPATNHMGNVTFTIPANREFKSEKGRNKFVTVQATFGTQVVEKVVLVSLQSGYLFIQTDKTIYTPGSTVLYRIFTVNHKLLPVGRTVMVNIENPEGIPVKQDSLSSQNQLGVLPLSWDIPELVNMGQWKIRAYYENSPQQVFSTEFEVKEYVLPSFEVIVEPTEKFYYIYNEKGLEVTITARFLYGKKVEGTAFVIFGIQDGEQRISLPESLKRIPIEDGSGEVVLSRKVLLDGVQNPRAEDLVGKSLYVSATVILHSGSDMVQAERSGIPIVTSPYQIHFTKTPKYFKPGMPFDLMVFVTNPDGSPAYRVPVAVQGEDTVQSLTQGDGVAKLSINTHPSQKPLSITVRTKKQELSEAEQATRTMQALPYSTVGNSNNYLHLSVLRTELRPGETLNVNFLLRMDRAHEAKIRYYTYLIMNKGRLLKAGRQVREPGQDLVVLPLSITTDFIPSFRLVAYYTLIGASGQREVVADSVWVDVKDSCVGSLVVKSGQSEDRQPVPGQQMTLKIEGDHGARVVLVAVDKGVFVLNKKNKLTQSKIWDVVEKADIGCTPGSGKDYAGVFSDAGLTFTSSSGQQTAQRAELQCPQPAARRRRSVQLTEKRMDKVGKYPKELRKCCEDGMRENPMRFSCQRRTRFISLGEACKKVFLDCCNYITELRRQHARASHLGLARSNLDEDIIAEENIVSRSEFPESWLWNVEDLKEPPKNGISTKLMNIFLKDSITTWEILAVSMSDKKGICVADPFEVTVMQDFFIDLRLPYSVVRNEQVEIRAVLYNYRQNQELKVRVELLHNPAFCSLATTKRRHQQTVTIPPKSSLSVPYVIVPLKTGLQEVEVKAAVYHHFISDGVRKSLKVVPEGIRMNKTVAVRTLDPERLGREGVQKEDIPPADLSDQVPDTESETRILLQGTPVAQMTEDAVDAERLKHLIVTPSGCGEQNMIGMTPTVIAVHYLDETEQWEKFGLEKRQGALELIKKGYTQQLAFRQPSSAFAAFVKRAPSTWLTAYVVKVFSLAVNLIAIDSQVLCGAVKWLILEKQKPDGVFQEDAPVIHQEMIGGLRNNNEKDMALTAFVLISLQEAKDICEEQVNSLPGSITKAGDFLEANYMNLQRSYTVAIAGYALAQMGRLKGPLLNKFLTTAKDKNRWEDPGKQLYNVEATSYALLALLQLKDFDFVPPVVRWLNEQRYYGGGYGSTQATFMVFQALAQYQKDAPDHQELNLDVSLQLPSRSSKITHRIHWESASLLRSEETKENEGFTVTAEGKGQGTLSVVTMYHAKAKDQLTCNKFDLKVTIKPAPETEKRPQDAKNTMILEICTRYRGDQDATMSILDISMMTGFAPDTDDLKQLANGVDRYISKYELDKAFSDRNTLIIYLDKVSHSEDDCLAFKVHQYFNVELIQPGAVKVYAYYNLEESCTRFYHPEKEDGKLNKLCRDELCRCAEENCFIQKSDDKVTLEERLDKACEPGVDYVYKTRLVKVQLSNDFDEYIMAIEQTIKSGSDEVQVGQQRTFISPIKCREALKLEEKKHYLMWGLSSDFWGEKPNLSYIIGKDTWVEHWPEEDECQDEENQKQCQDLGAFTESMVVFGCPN
UniProt P08603, residues 19-1231: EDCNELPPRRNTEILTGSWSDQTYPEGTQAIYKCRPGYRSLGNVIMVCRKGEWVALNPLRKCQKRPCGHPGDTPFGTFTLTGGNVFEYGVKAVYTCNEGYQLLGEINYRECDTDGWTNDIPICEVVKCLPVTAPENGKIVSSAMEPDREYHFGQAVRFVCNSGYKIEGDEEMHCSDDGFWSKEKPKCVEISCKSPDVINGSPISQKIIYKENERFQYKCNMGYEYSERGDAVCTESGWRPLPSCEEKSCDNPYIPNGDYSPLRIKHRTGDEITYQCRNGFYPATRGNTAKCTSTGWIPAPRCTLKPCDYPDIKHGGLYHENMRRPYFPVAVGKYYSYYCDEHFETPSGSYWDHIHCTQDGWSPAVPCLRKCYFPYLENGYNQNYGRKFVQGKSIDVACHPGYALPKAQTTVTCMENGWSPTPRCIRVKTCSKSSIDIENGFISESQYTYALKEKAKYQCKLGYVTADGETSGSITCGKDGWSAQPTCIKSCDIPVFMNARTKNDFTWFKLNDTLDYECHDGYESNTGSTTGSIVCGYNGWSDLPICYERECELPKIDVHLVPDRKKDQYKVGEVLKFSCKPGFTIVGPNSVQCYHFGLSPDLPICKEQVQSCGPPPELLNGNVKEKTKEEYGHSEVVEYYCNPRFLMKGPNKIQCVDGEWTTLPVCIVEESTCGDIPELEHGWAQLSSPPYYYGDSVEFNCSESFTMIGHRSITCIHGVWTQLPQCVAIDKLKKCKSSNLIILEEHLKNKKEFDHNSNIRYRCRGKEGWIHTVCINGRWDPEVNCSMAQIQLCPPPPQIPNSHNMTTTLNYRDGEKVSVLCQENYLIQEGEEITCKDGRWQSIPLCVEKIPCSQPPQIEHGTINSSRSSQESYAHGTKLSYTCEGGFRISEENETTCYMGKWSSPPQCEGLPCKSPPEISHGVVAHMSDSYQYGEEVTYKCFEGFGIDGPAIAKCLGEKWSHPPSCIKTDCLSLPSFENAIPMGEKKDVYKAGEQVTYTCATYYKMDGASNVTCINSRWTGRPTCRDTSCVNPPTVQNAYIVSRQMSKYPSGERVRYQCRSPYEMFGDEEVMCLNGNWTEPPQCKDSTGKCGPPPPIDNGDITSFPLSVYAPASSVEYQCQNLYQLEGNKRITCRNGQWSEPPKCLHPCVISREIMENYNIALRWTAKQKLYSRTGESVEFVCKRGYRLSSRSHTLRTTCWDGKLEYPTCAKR

No constants are given. Whether binding was seen depends on the method and setting. Some binding calls cover weakened binding; strength is not graded here.

In experiment [1] the target is C3b (UniProt P01024). As to the kind of experiment: SPR steady-state response against plasma-purified FH concentration on two flow cells with 1540 and 3030 RU of immobilised C3b [iv].
Experiment [2] has as its target C3b (UniProt P01024). As to the kind of experiment: SPR (Biacore), plasma-purified FH concentration series (5.4, 1.0, 0.5, 0.1 uM per legend) flowed over 1540 RU of C3b amine-coupled to a CM5 chip [ii].

Turning to “plasma-purified human factor H (from UniProt P08603 19-1231)”, the binding result with C3b [1] and with C3b [2] was “binds” in each case.
